Measured values reported in patent US6011135A, “Triazine thiol derivative having a perfluoro group, method for producing same and use of same” (Iwate University, priority 1997, dated 2000).

Legend:
[1] = Dipping treatment of metals: contact angle of water, nickel; settings: Na salt 1×10^-3 mol/L in water, 70° C., 30 minutes
[2] = Dipping treatment of metals: eluting potential from anodic polarization curve, nickel; settings: Na salt 1×10^-3 mol/L, 70° C., 30 minutes, electrolyte (NaPo3)6 0.1 M
[3] = Dipping treatment of metals: contact angle of water, iron; settings: Na salt 1×10^-3 mol/L in water, 70° C., 30 minutes
[4] = Dipping treatment of metals: contact angle of water, copper; settings: Na salt 1×10^-3 mol/L in water, 70° C., 30 minutes
[5] = Dipping treatment of metals: eluting potential from anodic polarization curve, iron; settings: Na salt 1×10^-3 mol/L, 70° C., 30 minutes, electrolyte (NaPo3)6 0.1 M
[6] = Dipping treatment of metals: eluting potential from anodic polarization curve, silver; settings: Na salt 1×10^-3 mol/L, 70° C., 30 minutes, electrolyte (NaPo3)6 0.1 M
[7] = Dipping treatment of metals: contact angle of water, silver; settings: Na salt 1×10^-3 mol/L in water, 70° C., 30 minutes
[8] = Dipping treatment of metals: eluting potential from anodic polarization curve, copper; settings: Na salt 1×10^-3 mol/L, 70° C., 30 minutes, electrolyte (NaPo3)6 0.1 M
[9] = Electrolytic polymerization treatment of metals, GPC of dissolved film, SUS 304 plate; settings: Na salt 5×10^-3 mol/L, 0.1 mA/cm^2, 10 minutes, 40° C.; for Number-average molecular weight: film
[10] = Tribological treatment of metals (circular cutting), GPC of film dissolved from cuttings, copper column; settings: Na salt 5×10^-3 mol/L in water based lubricant
[11] = Tribological treatment of metals (circular cutting), GPC of film dissolved from cuttings, iron column; settings: for Amount of film / Number-average molecular weight: iron column, Na salt 5×10^-3 mol/L in water based lubricant; for Number-average molecular weight: film
[12] = Table 7, iron and copper columns

Structure (SMILES): FC(F)(F)C(F)(F)C(F)(F)C(F)(F)C(F)(F)C(F)(F)C(F)(F)c1ccc(Nc2nc(S)nc(S)n2)cc1 [Comparative example, reference compound]
- Contact angle [1]: 110 °
- Eluting potential [2]: 1.6 V vs SCE
- Contact angle [3]: 90 °
- Contact angle [4]: 114 °
- Eluting potential [5]: 1.4 V vs SCE
- Eluting potential [6]: 0.5 V vs SCE
- Contact angle [7]: 106 °
- Eluting potential [8]: 0.2 V vs SCE
- Amount of film [9]: 0.6 μg/cm^2
- Number-average molecular weight [9]: 12,000
- Amount of film [10]: < 0.1 µg/g
- amount of film (in words) [11, 12]: very little
- molecular weight of the dissolved compound (in words) [11, 12]: a dimer or a trimer
- Amount of film [11]: < 0.1 µg/g
- Number-average molecular weight [11]: 1,500

Structure (SMILES): FC(F)(F)C(F)(F)C(F)(F)C(F)(F)C(F)(F)C(F)(F)CNc1nc(S)nc(S)n1 [Example 19]
- Contact angle [1]: 117 °
- Eluting potential [2]: 1.75 V vs SCE
- Contact angle [3]: 113 °
- Contact angle [4]: 121 °
- Eluting potential [5]: 1.5 V vs SCE
- Eluting potential [6]: 1.1 V vs SCE
- Contact angle [7]: 121 °
- Eluting potential [8]: 1.7 V vs SCE

Structure (SMILES): CCCCN(CC(F)(F)C(F)(F)C(F)(F)C(F)(F)C(F)(F)C(F)(F)C(F)(F)F)c1nc(S)nc(S)n1 [Example 20]
- Contact angle [1]: 119 °
- Eluting potential [2]: 1.9 V vs SCE
- Contact angle [3]: 114 °
- Contact angle [4]: 120 °
- Eluting potential [5]: 1.6 V vs SCE
- Eluting potential [6]: 1.5 V vs SCE
- Contact angle [7]: 121 °
- Eluting potential [8]: 1.9 V vs SCE
- Amount of film [9]: 12.6 μg/cm^2
- Number-average molecular weight [9]: 340,000
- Amount of film [10]: 6.4 µg/g
- Amount of film [11]: 1.6 µg/g
- Number-average molecular weight [11]: 8,200

Structure (SMILES): FC(F)(F)C(F)(F)C(F)(F)C(F)(F)C(F)(F)C(F)(F)C(F)(F)CN(c1nc(S)nc(S)n1)C1CCCCC1 [Example 21]
- Contact angle [1]: 120 °
- Eluting potential [2]: 1.9 V vs SCE
- Contact angle [3]: 116 °
- Contact angle [4]: 121 °
- Eluting potential [5]: 1.6 V vs SCE
- Eluting potential [6]: 1.6 V vs SCE
- Contact angle [7]: 120 °
- Eluting potential [8]: 1.9 V vs SCE
- Amount of film [9]: 13.2 μg/cm^2
- Number-average molecular weight [9]: 350,000
- Amount of film [10]: 6.9 µg/g
- Amount of film [11]: 1.9 µg/g
- Number-average molecular weight [11]: 9,300

Structure (SMILES): CCCCN(CC(F)(F)C(F)(F)C(F)(F)C(F)(F)C(F)(F)C(F)(F)C(F)(F)C(F)(F)C(F)(F)C(F)(F)F)c1nc(S)nc(S)n1 [Example 22]
- Contact angle [1]: 121 °
- Eluting potential [2]: 1.9 V vs SCE
- Contact angle [3]: 112 °
- Contact angle [4]: 120 °
- Eluting potential [5]: 1.6 V vs SCE
- Eluting potential [6]: 1 V vs SCE
- Contact angle [7]: 120 °
- Eluting potential [8]: 1.9 V vs SCE
- Amount of film [9]: 13.6 μg/cm^2
- Number-average molecular weight [9]: 330,000
- Amount of film [10]: 7.1 µg/g
- Amount of film [11]: 2.1 µg/g
- Number-average molecular weight [11]: 9,800

Structure (SMILES): FC(F)(F)C(F)(F)C(F)(F)C(F)(F)C(F)(F)C(F)(F)C(F)(F)CNc1nc(S)nc(S)n1 [Example 23]
- Amount of film [9]: 6.6 μg/cm^2
- Number-average molecular weight [9]: 110,000
- Amount of film [10]: 5.4 µg/g
- Amount of film [11]: 1.5 µg/g
- Number-average molecular weight [11]: 3,300
